Results on one compound are retold here after patent US20220211681A1, “COMPOSITIONS AND METHODS FOR PREVENTING INFLAMMATORY CONDITIONS” (Trustees of Tufts College, priority 2019, published 2022).

The data set can be described thus: Final body weight, body composition (MRI) and general observation of HFD-fed, AOM-treated FVB mice. It is filed as in vivo. The settings on record: mean ± SE.

`Cc1ncc(CO)c(CO)c1O.Cl` [B6, pyridoxine hydrochloride]: for the setting “MRI at 21 weeks after arrival”, the “% Fat Mass” value is reported as 32 ± 1.37 ^ab % and the “% Lean Mass” value is recorded as 64 ± 1.29 ^ab %. Besides, where the note is “agent in diet (CUR 0.2% w/w, B6 24 mg/kg)”, the “Final body weight (g)” value is given as 36.11 ± 0.69 ^ab g.
